Test results published in the supplement of paper PMC10849652.
Some of the results follow. Residues, ends and D or L forms follow the SMILES beside them. *: point of attachment. Cbz = O=C(OCc1ccccc1)*

The chains behind the UniProt entries cited, without tags or fusion partners. Where a name states a change or a piece, a line headed by the entry shows the natural chain unless it says otherwise.
UniProt Q15843, whole entry, looked up: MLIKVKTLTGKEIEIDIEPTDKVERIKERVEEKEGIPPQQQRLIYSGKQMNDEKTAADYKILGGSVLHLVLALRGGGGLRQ
UniProt O43678, whole entry, looked up: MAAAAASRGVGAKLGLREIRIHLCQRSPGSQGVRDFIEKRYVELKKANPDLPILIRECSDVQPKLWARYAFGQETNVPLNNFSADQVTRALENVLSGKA
UniProt P52298: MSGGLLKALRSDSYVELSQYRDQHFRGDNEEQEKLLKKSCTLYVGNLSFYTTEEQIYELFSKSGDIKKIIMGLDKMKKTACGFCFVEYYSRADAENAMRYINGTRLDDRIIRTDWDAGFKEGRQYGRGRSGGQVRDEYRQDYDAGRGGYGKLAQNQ
UniProt Q9Y2A7: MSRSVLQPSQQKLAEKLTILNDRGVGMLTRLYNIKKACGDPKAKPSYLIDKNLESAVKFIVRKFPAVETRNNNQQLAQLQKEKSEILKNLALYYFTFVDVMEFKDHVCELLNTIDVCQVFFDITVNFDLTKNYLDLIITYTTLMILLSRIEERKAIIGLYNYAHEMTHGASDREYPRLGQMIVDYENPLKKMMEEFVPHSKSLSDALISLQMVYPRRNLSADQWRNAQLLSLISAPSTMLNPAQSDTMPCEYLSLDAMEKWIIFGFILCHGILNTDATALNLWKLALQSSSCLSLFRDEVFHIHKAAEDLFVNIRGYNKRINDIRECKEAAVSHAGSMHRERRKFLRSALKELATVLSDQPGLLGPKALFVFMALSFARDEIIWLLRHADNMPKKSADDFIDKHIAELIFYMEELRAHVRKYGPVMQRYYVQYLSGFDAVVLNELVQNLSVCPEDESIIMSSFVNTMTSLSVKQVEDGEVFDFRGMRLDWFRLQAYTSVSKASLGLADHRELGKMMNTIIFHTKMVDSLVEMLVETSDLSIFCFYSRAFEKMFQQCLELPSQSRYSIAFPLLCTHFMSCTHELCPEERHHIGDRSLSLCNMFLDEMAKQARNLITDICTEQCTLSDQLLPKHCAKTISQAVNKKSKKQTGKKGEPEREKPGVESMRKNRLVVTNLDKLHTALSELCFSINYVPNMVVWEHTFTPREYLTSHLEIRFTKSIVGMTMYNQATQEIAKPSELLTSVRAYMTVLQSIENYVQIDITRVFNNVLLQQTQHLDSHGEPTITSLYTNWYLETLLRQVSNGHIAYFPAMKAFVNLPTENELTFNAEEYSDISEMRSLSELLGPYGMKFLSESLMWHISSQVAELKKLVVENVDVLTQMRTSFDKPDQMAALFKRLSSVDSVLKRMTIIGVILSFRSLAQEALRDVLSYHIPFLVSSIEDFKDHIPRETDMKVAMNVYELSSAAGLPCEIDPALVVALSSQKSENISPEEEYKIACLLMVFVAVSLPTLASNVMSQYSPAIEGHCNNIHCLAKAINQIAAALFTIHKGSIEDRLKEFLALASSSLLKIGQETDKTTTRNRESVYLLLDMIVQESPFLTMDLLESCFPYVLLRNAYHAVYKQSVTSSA
UniProt O95167, whole entry, looked up: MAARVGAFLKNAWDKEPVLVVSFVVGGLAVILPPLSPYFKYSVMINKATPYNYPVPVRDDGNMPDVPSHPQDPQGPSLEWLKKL
UniProt Q92692, whole entry, looked up: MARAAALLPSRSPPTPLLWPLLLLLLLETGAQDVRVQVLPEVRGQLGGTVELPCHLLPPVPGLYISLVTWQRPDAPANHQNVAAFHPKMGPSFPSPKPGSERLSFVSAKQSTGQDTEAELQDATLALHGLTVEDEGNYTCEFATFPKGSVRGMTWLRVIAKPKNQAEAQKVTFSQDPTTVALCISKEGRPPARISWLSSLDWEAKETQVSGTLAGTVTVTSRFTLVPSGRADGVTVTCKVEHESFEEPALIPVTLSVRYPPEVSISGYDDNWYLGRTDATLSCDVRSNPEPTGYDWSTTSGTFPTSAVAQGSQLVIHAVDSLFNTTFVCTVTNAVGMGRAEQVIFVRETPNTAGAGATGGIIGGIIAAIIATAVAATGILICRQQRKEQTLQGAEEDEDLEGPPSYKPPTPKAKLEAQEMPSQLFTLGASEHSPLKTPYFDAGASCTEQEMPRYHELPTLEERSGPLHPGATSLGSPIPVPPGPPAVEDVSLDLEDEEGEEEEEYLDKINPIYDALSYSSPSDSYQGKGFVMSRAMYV
NBDY, A0A0U1RRE5, UniProt A0A0U1RRE5, whole entry, looked up: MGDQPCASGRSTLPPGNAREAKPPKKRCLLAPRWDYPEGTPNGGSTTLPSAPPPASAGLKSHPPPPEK
UniProt P17568, whole entry, looked up: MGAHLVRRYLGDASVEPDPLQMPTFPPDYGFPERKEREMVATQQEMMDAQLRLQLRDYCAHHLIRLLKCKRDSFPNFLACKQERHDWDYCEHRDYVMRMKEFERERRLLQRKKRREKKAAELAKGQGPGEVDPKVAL
UniProt Q15788: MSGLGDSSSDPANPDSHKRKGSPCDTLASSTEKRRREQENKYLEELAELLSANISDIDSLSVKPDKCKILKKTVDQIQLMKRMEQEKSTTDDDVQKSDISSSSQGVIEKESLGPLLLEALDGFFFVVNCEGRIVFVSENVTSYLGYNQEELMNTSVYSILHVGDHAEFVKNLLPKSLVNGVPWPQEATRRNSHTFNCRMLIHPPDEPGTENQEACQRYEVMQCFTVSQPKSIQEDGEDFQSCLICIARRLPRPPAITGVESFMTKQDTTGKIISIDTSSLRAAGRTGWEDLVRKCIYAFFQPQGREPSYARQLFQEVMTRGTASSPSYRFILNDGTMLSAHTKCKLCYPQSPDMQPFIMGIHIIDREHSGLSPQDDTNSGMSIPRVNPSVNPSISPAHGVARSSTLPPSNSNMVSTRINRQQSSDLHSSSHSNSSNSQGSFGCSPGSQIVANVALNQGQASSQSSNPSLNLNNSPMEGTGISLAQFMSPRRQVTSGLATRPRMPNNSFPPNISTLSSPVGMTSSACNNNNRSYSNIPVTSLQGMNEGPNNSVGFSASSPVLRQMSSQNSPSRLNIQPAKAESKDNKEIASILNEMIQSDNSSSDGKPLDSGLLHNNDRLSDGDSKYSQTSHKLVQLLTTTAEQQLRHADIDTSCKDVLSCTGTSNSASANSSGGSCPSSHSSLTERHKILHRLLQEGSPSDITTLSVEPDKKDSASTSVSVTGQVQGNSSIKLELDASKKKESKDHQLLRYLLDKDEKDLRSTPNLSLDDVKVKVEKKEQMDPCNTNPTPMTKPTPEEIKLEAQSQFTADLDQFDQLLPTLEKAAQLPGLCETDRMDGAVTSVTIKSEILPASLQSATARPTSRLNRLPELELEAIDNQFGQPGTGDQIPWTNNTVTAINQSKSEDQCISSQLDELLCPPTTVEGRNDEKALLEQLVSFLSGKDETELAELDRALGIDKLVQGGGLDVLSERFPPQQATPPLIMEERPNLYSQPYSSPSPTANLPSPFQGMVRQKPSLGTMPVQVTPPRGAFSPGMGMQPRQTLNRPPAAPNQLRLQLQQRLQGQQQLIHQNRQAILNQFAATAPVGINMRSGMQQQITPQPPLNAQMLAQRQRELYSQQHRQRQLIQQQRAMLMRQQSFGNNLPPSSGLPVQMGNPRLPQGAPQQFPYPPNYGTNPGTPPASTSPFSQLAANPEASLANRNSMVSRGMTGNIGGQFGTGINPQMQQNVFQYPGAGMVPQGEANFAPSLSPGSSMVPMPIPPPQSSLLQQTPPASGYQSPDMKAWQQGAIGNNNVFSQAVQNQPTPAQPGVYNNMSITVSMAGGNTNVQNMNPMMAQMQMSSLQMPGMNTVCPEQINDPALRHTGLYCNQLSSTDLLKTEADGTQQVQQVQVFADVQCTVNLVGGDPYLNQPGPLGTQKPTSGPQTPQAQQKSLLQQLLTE
UniProt P46934: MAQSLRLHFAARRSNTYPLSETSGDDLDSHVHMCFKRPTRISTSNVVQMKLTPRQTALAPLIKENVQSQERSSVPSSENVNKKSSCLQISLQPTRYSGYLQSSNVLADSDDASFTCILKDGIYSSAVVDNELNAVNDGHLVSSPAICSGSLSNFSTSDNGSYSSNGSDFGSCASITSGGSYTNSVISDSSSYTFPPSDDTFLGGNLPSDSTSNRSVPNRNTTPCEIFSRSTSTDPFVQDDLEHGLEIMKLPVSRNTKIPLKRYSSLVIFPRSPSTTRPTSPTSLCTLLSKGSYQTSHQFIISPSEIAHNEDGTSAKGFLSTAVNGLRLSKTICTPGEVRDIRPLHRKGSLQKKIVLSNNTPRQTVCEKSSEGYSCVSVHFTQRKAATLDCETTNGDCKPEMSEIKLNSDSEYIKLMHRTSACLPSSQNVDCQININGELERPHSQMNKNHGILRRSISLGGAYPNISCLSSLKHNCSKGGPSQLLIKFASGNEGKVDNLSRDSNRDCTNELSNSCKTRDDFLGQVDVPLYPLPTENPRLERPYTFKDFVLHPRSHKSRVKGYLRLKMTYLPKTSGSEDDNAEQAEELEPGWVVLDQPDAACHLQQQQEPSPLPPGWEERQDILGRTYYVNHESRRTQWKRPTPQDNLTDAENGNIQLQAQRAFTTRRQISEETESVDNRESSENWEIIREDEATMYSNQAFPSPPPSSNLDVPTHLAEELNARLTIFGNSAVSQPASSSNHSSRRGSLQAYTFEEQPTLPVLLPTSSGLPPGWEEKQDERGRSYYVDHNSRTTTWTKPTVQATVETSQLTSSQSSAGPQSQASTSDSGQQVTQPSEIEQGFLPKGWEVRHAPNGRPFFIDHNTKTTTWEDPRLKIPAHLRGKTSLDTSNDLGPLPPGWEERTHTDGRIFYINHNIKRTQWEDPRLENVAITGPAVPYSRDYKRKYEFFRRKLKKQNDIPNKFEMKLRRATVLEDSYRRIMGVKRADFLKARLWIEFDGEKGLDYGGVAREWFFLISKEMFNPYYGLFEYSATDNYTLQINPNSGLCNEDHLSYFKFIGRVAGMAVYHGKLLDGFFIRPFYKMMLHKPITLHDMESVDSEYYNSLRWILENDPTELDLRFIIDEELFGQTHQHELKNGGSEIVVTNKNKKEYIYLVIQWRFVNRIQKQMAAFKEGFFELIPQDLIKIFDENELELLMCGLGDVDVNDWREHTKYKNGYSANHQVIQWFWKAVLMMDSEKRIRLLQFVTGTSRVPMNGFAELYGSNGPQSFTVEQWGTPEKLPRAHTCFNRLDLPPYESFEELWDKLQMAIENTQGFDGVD
UniProt O75438, whole entry, looked up: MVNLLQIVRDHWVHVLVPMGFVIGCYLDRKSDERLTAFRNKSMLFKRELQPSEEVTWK
UniProt Q96RE7: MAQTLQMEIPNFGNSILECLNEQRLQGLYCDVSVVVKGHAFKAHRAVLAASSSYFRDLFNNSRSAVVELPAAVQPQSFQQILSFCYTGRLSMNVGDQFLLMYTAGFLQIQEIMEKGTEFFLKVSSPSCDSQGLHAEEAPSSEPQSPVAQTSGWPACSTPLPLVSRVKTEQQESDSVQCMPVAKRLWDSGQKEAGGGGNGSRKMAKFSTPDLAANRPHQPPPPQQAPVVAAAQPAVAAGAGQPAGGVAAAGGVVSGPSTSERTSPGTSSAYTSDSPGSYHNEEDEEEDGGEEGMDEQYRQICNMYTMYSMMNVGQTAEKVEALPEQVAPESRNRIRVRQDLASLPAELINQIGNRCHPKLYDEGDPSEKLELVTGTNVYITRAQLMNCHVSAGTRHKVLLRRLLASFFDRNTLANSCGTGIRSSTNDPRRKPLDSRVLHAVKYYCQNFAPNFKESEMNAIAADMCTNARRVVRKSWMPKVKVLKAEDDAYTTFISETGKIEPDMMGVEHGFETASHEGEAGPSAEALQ
UniProt P52848: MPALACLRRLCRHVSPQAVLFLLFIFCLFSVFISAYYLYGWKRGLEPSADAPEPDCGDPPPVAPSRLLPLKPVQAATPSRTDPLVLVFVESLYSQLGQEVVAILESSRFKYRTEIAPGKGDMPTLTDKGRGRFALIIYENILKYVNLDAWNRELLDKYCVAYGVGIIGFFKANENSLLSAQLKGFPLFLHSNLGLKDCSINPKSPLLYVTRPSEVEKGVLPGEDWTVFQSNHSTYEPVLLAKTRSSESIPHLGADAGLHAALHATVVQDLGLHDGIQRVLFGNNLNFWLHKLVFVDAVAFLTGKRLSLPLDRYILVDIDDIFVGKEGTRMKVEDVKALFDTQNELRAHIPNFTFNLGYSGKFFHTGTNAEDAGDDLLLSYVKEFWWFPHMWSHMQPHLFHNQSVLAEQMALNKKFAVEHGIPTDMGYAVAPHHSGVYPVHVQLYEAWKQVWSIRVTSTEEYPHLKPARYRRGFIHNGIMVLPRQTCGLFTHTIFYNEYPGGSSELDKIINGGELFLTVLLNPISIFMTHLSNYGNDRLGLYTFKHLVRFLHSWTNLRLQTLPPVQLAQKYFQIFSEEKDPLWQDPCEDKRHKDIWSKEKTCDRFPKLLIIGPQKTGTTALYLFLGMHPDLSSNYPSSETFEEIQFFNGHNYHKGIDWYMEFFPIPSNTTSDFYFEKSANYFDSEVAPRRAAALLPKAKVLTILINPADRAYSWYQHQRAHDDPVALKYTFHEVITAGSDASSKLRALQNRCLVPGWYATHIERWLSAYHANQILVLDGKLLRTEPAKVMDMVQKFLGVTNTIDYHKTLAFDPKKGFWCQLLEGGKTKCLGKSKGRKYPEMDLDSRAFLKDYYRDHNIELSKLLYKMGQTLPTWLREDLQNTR

Experiments:
Assay in all cases: log2 fold change, soluble protein after heating vs DMSO (PISA); higher = thermal stabilisation; K562 cells, 10 uM, 30 min; active = over 0.2 and 3.5 SD of the protein, either way, in both replicates (recomputed)
[1] = compound: C#Cc1cccc(Nc2ncnc3cc(OCCOC)c(OCCOC)cc23)c1 [erlotinib]
Procedure, shortened: (§1)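 Quantification of soluble protein used TMTpro 16plex LC-MS/MS, with channel sums equalised. Samples were the supernatant after 21,000xg for 90 min of pooled aliquots from K562 cells (2×10^6 cells/mL) treated with 10 μM compound for 30 min, heated for 3 min over 48°C-58°C, and extracted in PBS with 0.5% NP-40 at 4°C. Values, from duplicates, describe thermal stability against control samples on a log2 fold-change scale.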

[2] = compound: C/C(=N\NC(=O)C1=CC(=CC=C1)S(=O)(=O)N2CCOCC2)/C3=C(C=CC(=C3)Cl)O
Procedure, shortened: as §1

[3] = compound: C1=CC(=C(C=C1Cl)C2=NC3=NC=CN=C3C(=N2)NC4=CC=NC=C4)F
Procedure, shortened: as §1

[4] = compound: C1=CC(=CC=C1C2=NC3=C(N2)C=C(C=C3)C(=O)N)OC4=CC=C(C=C4)Cl
Procedure, shortened: as §1

[5] = compound: C1=CC2=C(C=CC(=C2)/C=C\3/C(=O)NC(=NCC4=CC=CS4)S3)N=C1
Procedure, shortened: as §1

[6] = compound: C1=CC2=NC=CN=C2C=C1/C=C/3\C(=O)NC(=O)S3
Procedure, shortened: as §1

[7] = compound: C1=CC=C(C=C1)C2=NC(=C(N2)C3=CC=NC=C3)C4=CC(=C(C=C4)Cl)O
Procedure, shortened: as §1

[8] = compound: C1=CC=C2C(=C1)C3=NNC4=CC=CC(=C43)C2=O
Procedure, shortened: as §1

[9] = compound: C1CCN(C1)C(=O)NC2=CC=CC(=C2)NC3=NC=C(C(=N3)NCCC4=CN=CN4)Br
Procedure, shortened: as §1

[10] = compound: C1CN(CCC1(CC2=CC=C(C=C2)Cl)N)C3=NC=NC4=C3C=CN4
Procedure, shortened: as §1

[11] = compound: C1COCCN1CCN2C3=CC=CC=C3N=C2NC(=O)C4=CC(=CC=C4)[N+](=O)[O-] [IRAK-1-4 Inhibitor I]
Procedure, shortened: as §1

[12] = compound: C=CC(=O)N1CCC[C@@H](n2nc(-c3ccc(Oc4ccccc4)cc3)c3c(N)ncnc32)C1 [ibrutinib]
Procedure, shortened: as §1

[13] = compound: CC(=O)c1cnc2ccc(-c3cc(Cl)c(O)c(Cl)c3)nc2c1N[C@H]1CC[C@H](CN(C)C)CC1
Procedure, shortened: as §1

[14] = compound: CC(C)(C)Cn1c(N)nc2ccc(-c3[nH]c(C(C)(C)C)nc3-c3ccc(F)cc3)nc21 [ralimetinib]
Procedure, shortened: as §1

[15] = compound: CC(C)(O)CC(=O)NCCn1ccc2ncnc(Nc3ccc(Oc4cccc(C(F)(F)F)c4)c(Cl)c3)c21
Procedure, shortened: as §1

[16] = compound: CC(C)C1=C2N=C(C=C(N2N=C1)NCC3=CC=CC=C3)NCCCCCCN
Procedure, shortened: as §1

[17] = compound: CC(C)C[C@@H](C=O)NC(=O)[C@H](CC(C)C)NC(=O)[C@H](CC(C)C)NC(=O)OCc1ccccc1
Procedure, shortened: as §1

[18] = compound: CC(C)N(C[C@H]1O[C@@H](n2cnc3c(N)ncnc32)[C@H](O)[C@@H]1O)[C@H]1C[C@@H](CCc2nc3cc(C(C)(C)C)ccc3[nH]2)C1 [pinometostat]
Procedure, shortened: as §1

[19] = compound: CC1=C(C(CC(=O)N1)C2=CC=C(C=C2)C(F)(F)F)C(=O)NC3=C(C=C4C(=C3)C=NN4)F
Procedure, shortened: as §1

[20] = compound: CC1=C(C2=C(C=C1)C(=O)C3=CC=CC=C3N2CCCN)C
Procedure, shortened: as §1

Measured: log2 fold change

NEDD8 (UniProt Q15843)
inactive: [1] -0.002 | [2] -0.026 | [3] 0.145 | [4] -0.001 | [5] 0.121 | [6] 0.07 | [7] 0.076 | [8] 0.089 | [9] -0.04 | [10] -0.024 | [11] 0.065 | [12] 0.023 | [13] 0 | [14] -0.056 | [15] -0.113 | [16] 0.073 | [17] -0.052 | [18] -0.039 | [19] 0.026 | [20] 0.091

NA, A0A096LPI6
inactive: [1] -0.009 | [2] -0.009 | [3] 0.047 | [4] 0.02 | [5] -0.051 | [6] 0.04 | [7] 0.023 | [8] -0.004 | [9] 0.008 | [10] 0.035 | [11] 0.065 | [12] 0.022 | [13] 0.046 | [14] -0.057 | [15] 0.008 | [16] 0.058 | [17] -0.016 | [18] -0.043 | [20] 0.004

NCK1 (UniProt P16333)
inactive: [1] 0.045 | [2] 0.206 | [3] -0.066 | [4] 0 | [5] 0.179 | [6] -0.019 | [7] -0.084 | [8] 0 | [9] -0.135 | [10] -0.081 | [11] -0.178 | [12] -0.154 | [13] -0.252 | [14] 0.044 | [15] -0.038 | [16] -0.283 | [17] 0.082 | [18] 0.076 | [20] 0.039

NDUFA2 (UniProt O43678)
inactive: [1] -0.048 | [2] 0.02 | [3] 0.22 | [4] -0.022 | [5] 0.098 | [6] 0.012 | [7] 0.044 | [8] -0.008 | [9] -0.021 | [10] 0.043 | [11] 0.027 | [12] -0.025 | [13] -0.007 | [14] -0.064 | [15] -0.127 | [16] 0.045 | [17] 0.116 | [18] 0.032 | [19] -0.041 | [20] 0.233

NCBP2 (UniProt P52298)
inactive: [1] 0.02 | [2] -0.068 | [3] 0.05 | [4] -0.023 | [5] -0.034 | [6] 0.01 | [7] 0.024 | [8] 0.025 | [9] -0.032 | [10] 0.018 | [11] 0.095 | [12] -0.017 | [13] -0.001 | [14] 0.001 | [15] 0.005 | [16] 0.039 | [17] -0.009 | [18] -0.049 | [19] -0.021 | [20] 0.105

NCKAP1 isoform 2 (UniProt Q9Y2A7)
inactive: [1] -0.019 | [2] 0.096 | [3] 0.056 | [4] 0.02 | [5] 0.015 | [6] 0.02 | [7] 0.024 | [8] -0.003 | [9] -0.037 | [10] 0.027 | [11] 0 | [12] 0.002 | [13] -0.063 | [14] 0.07 | [15] -0.038 | [16] -0.047 | [17] -0.037 | [18] 0.01 | [20] -0.009

NDUFA3 (UniProt O95167)
inactive: [1] 0.058 | [2] 0.01 | [3] 0.139 | [4] -0.001 | [5] 0.141 | [6] 0.016 | [7] -0.088 | [8] -0.077 | [9] 0.019 | [10] -0.16 | [12] 0.055 | [13] -0.079 | [14] -0.119 | [15] -0.059 | [16] -0.248 | [17] 0.218 | [19] 0.053 | [20] 0.113

NECTIN2 (UniProt Q92692)
inactive: [1] 0.002 | [2] 0.005 | [3] 0.064 | [4] -0.006 | [5] 0.002 | [6] 0.008 | [7] -0.04 | [8] -0.041 | [9] -0.045 | [10] 0.077 | [11] 0.025 | [12] 0.02 | [13] -0.023 | [14] -0.035 | [15] -0.03 | [16] 0.182 | [17] 0.024 | [18] 0.009 | [20] 0

NEB isoform 3 (UniProt P20929)
inactive: [1] -0.063 | [2] 0.03 | [3] -0.027 | [4] -0.036 | [5] 0.048 | [6] 0.048 | [7] 0.017 | [8] -0.002 | [12] 0.022 | [13] -0.085 | [14] -0.009 | [15] 0.002 | [16] 0.106 | [17] 0.063 | [19] 0.027

NBDY, A0A0U1RRE5
inactive: [1] 0.157 | [2] -0.153 | [3] 0.391 | [4] -0.038 | [5] 0.033 | [6] -0.007 | [7] 0.08 | [8] 0.048 | [9] 0.288 | [10] -0.005 | [12] 0.034 | [13] -0.083 | [14] -0.001 | [15] -0.068 | [16] 0.244 | [17] -0.019 | [19] -0.007 | [20] 0.173

NDUFB7 (UniProt P17568)
inactive: [1] -0.027 | [2] 0.015 | [3] 0.038 | [4] 0.04 | [5] -0.011 | [6] 0.061 | [7] 0.031 | [8] -0.007 | [9] 0.037 | [10] 0.041 | [11] 0.012 | [12] 0.008 | [13] 0.007 | [14] 0.079 | [15] -0.034 | [16] -0.002 | [17] -0.055 | [18] -0.017 | [20] 0.004

NCOA1 (UniProt Q15788)
inactive: [1] 0.018 | [2] 0.114 | [3] 0.062 | [4] 0.071 | [5] 0.077 | [6] 0.081 | [7] -0.065 | [8] -0.044 | [9] -0.018 | [10] -0.05 | [12] 0.062 | [13] -0.174 | [14] -0.114 | [15] -0.088 | [16] -0.085 | [17] 0.133 | [19] 0.034 | [20] 0.124

NEDD4 isoform 4 (UniProt P46934)
inactive: [1] -0.024 | [2] 0.067 | [3] 0.048 | [4] -0.011 | [5] 0.052 | [6] 0.066 | [7] 0.048 | [8] -0.001 | [9] 0.003 | [10] -0.053 | [11] 0.002 | [12] -0.038 | [13] 0.02 | [14] -0.014 | [15] -0.027 | [16] -0.124 | [17] 0.019 | [18] -0.03 | [20] -0.065

NDUFB1 (UniProt O75438)
inactive: [1] -0.015 | [2] -0.016 | [3] 0.209 | [4] 0.053 | [5] -0.102 | [6] 0.039 | [8] 0.079 | [9] -0.05 | [10] -0.006 | [11] 0.034 | [12] 0.024 | [13] 0.06 | [15] -0.043 | [16] -0.052 | [18] 0.065 | [20] 0.158

NACC1 (UniProt Q96RE7)
active: [16] -0.352
inactive: [1] 0.134 | [2] 0.242 | [3] 0.065 | [4] -0.034 | [5] -0.017 | [6] 0.05 | [7] -0.02 | [8] -0.08 | [9] -0.059 | [10] -0.01 | [11] -0.026 | [12] -0.048 | [13] -0.109 | [14] -0.017 | [15] -0.058 | [17] -0.014 | [18] -0.015 | [20] -0.193

2 entries picked at random from those above, as already listed:
NDUFB7 (UniProt P17568)
inactive: [1] -0.027 | [2] 0.015 | [3] 0.038 | [4] 0.04 | [5] -0.011 | [6] 0.061 | [7] 0.031 | [8] -0.007 | [9] 0.037 | [10] 0.041 | [11] 0.012 | [12] 0.008 | [13] 0.007 | [14] 0.079 | [15] -0.034 | [16] -0.002 | [17] -0.055 | [18] -0.017 | [20] 0.004

NEDD4 isoform 4 (UniProt P46934)
inactive: [1] -0.024 | [2] 0.067 | [3] 0.048 | [4] -0.011 | [5] 0.052 | [6] 0.066 | [7] 0.048 | [8] -0.001 | [9] 0.003 | [10] -0.053 | [11] 0.002 | [12] -0.038 | [13] 0.02 | [14] -0.014 | [15] -0.027 | [16] -0.124 | [17] 0.019 | [18] -0.03 | [20] -0.065

Continued.

NDST1 (UniProt P52848)
inactive: [1] 0.109 | [2] 0.123 | [3] -0.013 | [4] -0.01 | [5] -0.025 | [6] -0.069 | [8] -0.016 | [9] -0.043 | [10] 0.004 | [11] 0.08 | [12] 0.045 | [13] -0.038 | [15] 0.043 | [16] -0.009 | [18] -0.041 | [19] -0.095 | [20] 0.083
